# Measurements taken from paper PMC7819943, “Rice protein-binding microarrays: a tool to detect cis-acting elements near promoter regions in rice”.
# The other results are listed elsewhere or left out.
# Target: T1, OsSMF1 (Oryza sativa, UniProt Q6ZLB0 1-436)
# T1 sequence: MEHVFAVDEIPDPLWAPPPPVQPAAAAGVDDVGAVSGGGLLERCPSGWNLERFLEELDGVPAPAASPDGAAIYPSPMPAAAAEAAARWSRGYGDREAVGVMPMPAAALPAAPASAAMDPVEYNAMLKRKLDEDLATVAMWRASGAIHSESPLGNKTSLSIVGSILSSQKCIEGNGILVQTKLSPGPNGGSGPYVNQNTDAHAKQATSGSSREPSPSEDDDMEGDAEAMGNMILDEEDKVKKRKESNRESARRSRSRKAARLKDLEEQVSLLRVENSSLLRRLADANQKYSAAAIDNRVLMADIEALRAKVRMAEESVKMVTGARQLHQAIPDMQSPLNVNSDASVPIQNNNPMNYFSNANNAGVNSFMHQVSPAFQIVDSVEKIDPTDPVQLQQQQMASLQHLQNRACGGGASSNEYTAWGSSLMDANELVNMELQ
# Test: protein-binding microarray (RPBM); PBS, 2% BSA, 51.3 ng/ul salmon testes DNA, 50 uM zinc acetate, 200 nM TF, 25 C, 1 h; high values mean tight binding
# Details: protein: recombinant; tags: N-terminal polyhistidine and DsRed monomer fusion (pET32a); chain copies: 2; label: CyDye5-dUTP incorporated in the synthesized complementary strand; 3' TTTTT single-stranded linker to array surface; dsDNA, one strand shown
# Summary of the method: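 An Axon 4000B scanner gave the binding signal as per-feature fluorescence intensity in arbitrary units. This followed washing of a custom Agilent array that had been incubated for 1 h at 25 °C with 200 nM protein in PBS, 2% BSA, salmon testes DNA and 50 µM zinc acetate. The proteins were transcription factors fused at the N-terminus to polyhistidine and DsRed, expressed in E. coli BL21-CodonPlus and purified on Ni–NTA.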
row,Sequence,binding signal
1,GCAACACCAATGACTCAAGGCCCAAAAGGAATTGACGACCCGGAGTCACCTAGTGCAG,3840 fluorescence intensity (a.u.)
2,GATTCGTTTCGTAATTTGCACGTAATTTACACGTAATCTGCGGAGTCACCTAGTGCAG,6830 fluorescence intensity (a.u.)
3,CGCCTCCTCTTCTCCCAGCATCCACGTATAAATAAGCTCTCGGAGTCACCTAGTGCAG,4490 fluorescence intensity (a.u.)
4,AGACAGTGAATGGCAGAGTCCAAGTCACACACACTACACTCGGAGTCACCTAGTGCAG,4510 fluorescence intensity (a.u.)
5,ATTGTACTTTGCTAACACATCACGCACATAGCTACGGCTGCGGAGTCACCTAGTGCAG,4760 fluorescence intensity (a.u.)
6,GTGTTGCCATACATGTTGACGTGGCATCACGATAAGGTGGCGGAGTCACCTAGTGCAG,24300 fluorescence intensity (a.u.)
7,AAAAGGAGGGGAGGTGGATGACGATGTATCGTTCGCGTGTCGGAGTCACCTAGTGCAG,4520 fluorescence intensity (a.u.)
8,TGTCCTTTGTAGCTTGGAGTCATCCGTTTTGACGTTCATGCGGAGTCACCTAGTGCAG,3690 fluorescence intensity (a.u.)
9,AGGGTAAAATTAAATAGGCGAACCAACGATCTGATCACATCGGAGTCACCTAGTGCAG,20700 fluorescence intensity (a.u.)
10,TGGGGTTACATGAGGAGGGAAGGAGAGGAACAGAGGGTCCCGGAGTCACCTAGTGCAG,3730 fluorescence intensity (a.u.)
11,GGGGAAAGAGAGAGCAGACTGACGTGTCCACGTTGATATGCGGAGTCACCTAGTGCAG,14000 fluorescence intensity (a.u.)
12,CTCGCATTTCCCAGCTCGGATCCTCTTCTGACTTCTCTCTCGGAGTCACCTAGTGCAG,4360 fluorescence intensity (a.u.)
13,AAATTTTCAGAGAATGACTAAGGACAGCATGAAAGCTTGTCGGAGTCACCTAGTGCAG,3390 fluorescence intensity (a.u.)
14,TTCCTTATATCTGACATATGTTCAAATGACGCATTATAGCCGGAGTCACCTAGTGCAG,4120 fluorescence intensity (a.u.)
15,CGTCGGTCGCACCGCCGGTTCACGGGCCACGTATAGGAGTCGGAGTCACCTAGTGCAG,4530 fluorescence intensity (a.u.)
16,GACAACCGAACACGTCGAGCCAGCGAATGATGAAACCCCACGGAGTCACCTAGTGCAG,31800 fluorescence intensity (a.u.)
17,TGCTTTTATGACTGTTGGCATTGCCCTTGTCAGTTGGTTGCGGAGTCACCTAGTGCAG,3860 fluorescence intensity (a.u.)
18,AATCACTTGGGGACAACGTGTCACCGCCTCCACCGGACAACGGAGTCACCTAGTGCAG,4260 fluorescence intensity (a.u.)
19,ACTGTACATCCTTTAACTATATGTTGAGTTTGATTCACACCGGAGTCACCTAGTGCAG,3660 fluorescence intensity (a.u.)
20,TGAGTCCTCGGCGAAGCCCGTGTGCCTGACACACTGACCACGGAGTCACCTAGTGCAG,3560 fluorescence intensity (a.u.)
21,TGTCATGCCACGTTATATTTTGCTAAACTATCTCTATATACGGAGTCACCTAGTGCAG,6760 fluorescence intensity (a.u.)
22,CTTTTCTCCGACCATCCTGACTCACCTGCCATTAAGGAAGCGGAGTCACCTAGTGCAG,4680 fluorescence intensity (a.u.)
23,ATGACCGGAGATGGGTGGGGAGAAGGCTTGCAGCTGTCGACGGAGTCACCTAGTGCAG,3320 fluorescence intensity (a.u.)
24,AAACTATGCAGAATCTGACTTGTCAATGATTCTCTGTTTCCGGAGTCACCTAGTGCAG,3740 fluorescence intensity (a.u.)
25,ATGGCACAGTGTGACGGGAGACCCACCAGCCATTGGGCTGCGGAGTCACCTAGTGCAG,3920 fluorescence intensity (a.u.)
26,GCACGAATCGTGAAGCAGATCCGACGGTCCTAGCAATCCGCGGAGTCACCTAGTGCAG,20600 fluorescence intensity (a.u.)
27,TGGCAGCTTTGGCGCCACGCCAGCAATTTCTGCCTGTGGACGGAGTCACCTAGTGCAG,9260 fluorescence intensity (a.u.)

# Three consecutive records out of the list so far, quoted:
row,Sequence,binding signal
3,CGCCTCCTCTTCTCCCAGCATCCACGTATAAATAAGCTCTCGGAGTCACCTAGTGCAG,4490 fluorescence intensity (a.u.)
4,AGACAGTGAATGGCAGAGTCCAAGTCACACACACTACACTCGGAGTCACCTAGTGCAG,4510 fluorescence intensity (a.u.)
5,ATTGTACTTTGCTAACACATCACGCACATAGCTACGGCTGCGGAGTCACCTAGTGCAG,4760 fluorescence intensity (a.u.)

# (cont.)

row,Sequence,binding signal
1,GAGCTTCTGACTCATCTTTACTAGGAAGGGTCTTTTCAAGCGGAGTCACCTAGTGCAG,39100 fluorescence intensity (a.u.)
2,TAAGTCAATTGTAATGACTATAGTACTGTACGGAGTAATTCGGAGTCACCTAGTGCAG,3260 fluorescence intensity (a.u.)
3,TCCATGAGCCACGTGATATACTCTCTGTGTGTGTGTTTGCCGGAGTCACCTAGTGCAG,5710 fluorescence intensity (a.u.)
4,GGGCCTAACCTGTCAGTCAGCATGGGCCACCCCGCCCATCCGGAGTCACCTAGTGCAG,4400 fluorescence intensity (a.u.)
5,GAGGACTGTTCAGGACTTGACAGAATTGAAGATGAGGGTCCGGAGTCACCTAGTGCAG,3360 fluorescence intensity (a.u.)
6,AGGACGTCACGTCACCGACACGTGGGGCCCACCCCACCCGCGGAGTCACCTAGTGCAG,13900 fluorescence intensity (a.u.)
7,CTTACCATCTCCCCAAGCGGGAGAGTGGACGTCATAATTTCGGAGTCACCTAGTGCAG,45700 fluorescence intensity (a.u.)
8,TCTTGGAGAGTTCACACTACACATCATTCTGATGATAACTCGGAGTCACCTAGTGCAG,3430 fluorescence intensity (a.u.)
9,CTTACCCCTATTAAATGTGCATGACACACCAGTGAAACCCCGGAGTCACCTAGTGCAG,4240 fluorescence intensity (a.u.)
10,CATGCGAAAGCTCAGCTATACATAGGAAAAGAAGAGGGAGCGGAGTCACCTAGTGCAG,26000 fluorescence intensity (a.u.)
11,TATTTGGTTTTGTAGGGGTTGGTTTGGGAAAATTGGAAAGCGGAGTCACCTAGTGCAG,4240 fluorescence intensity (a.u.)
12,CAGAAATGGGCACTGAGTCAAACAACACCACATCATTAATCGGAGTCACCTAGTGCAG,3690 fluorescence intensity (a.u.)
13,TTGTGTTAAGTATATTTCATTGTGACACACAAGAGCCCAGCGGAGTCACCTAGTGCAG,3390 fluorescence intensity (a.u.)
14,TAGTTTGATTCTGACCAAAGTCAAAATATCTTATAACCTGCGGAGTCACCTAGTGCAG,3180 fluorescence intensity (a.u.)
15,TTTGAACAATTAAACGGCAAATCTACGTGGCACCAATATACGGAGTCACCTAGTGCAG,11500 fluorescence intensity (a.u.)
16,GATCCCAATCTCCATCGCCGCCTCCACTCCAGTGTACCGCCGGAGTCACCTAGTGCAG,6420 fluorescence intensity (a.u.)
17,ATCTTGGGCAATGCCACATCCCCTCACCACCACCACCAACCGGAGTCACCTAGTGCAG,5030 fluorescence intensity (a.u.)
18,AAGTTGGTAGTTAATGAATCCACCTCATATGACAAGCTTCCGGAGTCACCTAGTGCAG,4600 fluorescence intensity (a.u.)
19,GGTGGTGTTCATGAGCGATGACTCTGCCTGCCATTCACATCGGAGTCACCTAGTGCAG,3910 fluorescence intensity (a.u.)
20,CAAATAACAACTACTTGTCACACTGCCATTAAAGAAAATACGGAGTCACCTAGTGCAG,37000 fluorescence intensity (a.u.)
21,CAACACCGCCACGTAGGCGCCACATCAGCAAAACCATCCTCGGAGTCACCTAGTGCAG,23200 fluorescence intensity (a.u.)
22,GGGCTAGGTTAGGACTACAAACTAGCGCATAAATCTCGAACGGAGTCACCTAGTGCAG,14900 fluorescence intensity (a.u.)
23,CTGGTGCAAGTTATTCCAAGTGCAGGGCTGTTGCTGTGAGCGGAGTCACCTAGTGCAG,18400 fluorescence intensity (a.u.)
24,TCAGGGGAATTTCCGTCAAAACGGCGTCTATCCACTCACCCGGAGTCACCTAGTGCAG,3400 fluorescence intensity (a.u.)
25,ACCAAAACTGCCTCGTGTCGGCATCAATAACACCAAGATGCGGAGTCACCTAGTGCAG,5680 fluorescence intensity (a.u.)
26,TAATTGCTAGTGAGTGAAGATGTGACATGCTTGCGTGGGACGGAGTCACCTAGTGCAG,3900 fluorescence intensity (a.u.)
27,TCAACACACAATCACGTAAGTATATATGGCTCCCTCCTTGCGGAGTCACCTAGTGCAG,3260 fluorescence intensity (a.u.)
